The list shows a part of the results. Further columns of the screen follow, without active or inactive calls. Most of these compounds were active or inconclusive in the main read-out, so they are no random draw. The note in brackets gives the kind of curve behind each potency; many fits are weak.
Experiment: qHTS Assay for Lipid Storage Modulators in Drosophila S3 Cells;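 for cell number change: cells counted by Cell Tracker Red CMTPX staining in the red channel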
Conditions: BODIPY lipid droplet fluorescence, 18-24 h; for cell number change: measured here: cell count max response, cells fed with added oleic acid
How it was run: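 Drosophila S3 cells loaded with oleic acid (400 uM, as added) and compounds at several concentrations; lipid droplets imaged by 488-nm laser-scanning cytometry, 500–530 nm intensity and object ratio to cell channel. Percent activity normalized to 20 uM Triacsin C.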

[1] = measured here: cell number channel AC50, cells fed with added oleic acid
[2] = measured here: lipid fluorescence (Fed channel) AC50, cells fed with added oleic acid

SMILES | AC50 [1] | cell number change | AC50 [2]
Cc1ccccc1NC(=O)Cc1nc(COC(=O)CCNS(=O)(=O)c2ccccc2)cs1 | 0.92 µM [rising, partial curve] | – | –
CCOc1ccc(OCC(=O)OCc2cc(=O)n3cc(Br)ccc3n2)cc1 | – | 10.2% | 0.326 µM [falling, full curve, poor fit]
CC1CCN(c2nc(N3CCCCC3)nc(N3CCCCC3)n2)CC1 | 0.116 µM [falling, full curve, poor fit] | -62.5% | –
CCOc1ccc(-c2nc(N)ncc2-c2ccc(OC)cc2)c(O)c1 | – | -1.85% | 2.91 µM [rising, single point]
CC1CN(c2ccc(S(=O)(=O)N3CCCC3)cn2)CC(C)O1 (configuration not stated) | 1.3 µM [rising, partial curve] | -0.819% | 3.66 µM [rising, partial curve, poor fit]
Cc1ccc2c(c1)C1(OCCO1)C(=O)N2 | 29.1 µM [rising, single point] | 45.8% | –
COC(=O)COc1ccc(S(=O)(=O)NCc2ccco2)cc1 | – | -16.5% | 5.8 µM [falling, full curve]
O=C(O)c1ccc(CNC(=S)Nc2ccccc2)cc1 | – | -2.55% | 0.146 µM [falling, single point]
O=C(NCc1ccccc1)N1CCC(n2cnc3cc(F)ccc32)CC1 | – | -2.87% | 1.84 µM [rising, partial curve]
CC1CCCC(C)N1C(=O)COC(=O)C12CC3CC(CC(Cl)(C3)C1)C2 (configuration not stated) | – | -21.4% | 0.0651 µM [rising, full curve, poor fit]
O=c1cc(N2CCN(c3ccccc3)CC2)[nH]c(=O)n1Cc1ccc(F)cc1 | 5.17 µM [rising, partial curve] | 45.5% | 3.26 µM [rising, single point]
Cc1cc(C)n(-c2ccc(C(=O)OCC(=O)Nc3ccc(S(=O)(=O)N4CCOCC4)cc3)cc2)n1 | – | 4.46% | 0.146 µM [falling, full curve, poor fit]
COc1ccc(S(=O)(=O)N2CCCN(CC(=O)Nc3ccc(NC(C)=O)cc3)CC2)cc1 | – | -0.417% | 0.164 µM [rising, full curve, poor fit]
CCN=C1SC(CC(=O)Nc2sc(C)c(C)c2C(=O)OC)C(=O)N1CC (configuration not stated) | – | 1.08% | 0.206 µM [rising, full curve]
CN(C)/C=C/C(=O)c1ccc([N+](=O)[O-])c(CS(=O)(=O)c2ccc(Cl)cc2)c1 | – | 17.9% | 16.4 µM [rising, single point]
CCN(CC)S(=O)(=O)c1ccc(N2CCCC2)c(NS(=O)(=O)c2ccc(F)cc2)c1 | 4.61 µM [falling, partial curve] | -30% | 1.3 µM [falling, full curve]
O=C(CSc1n[nH]c(=O)n1C1CC1)N1N=C(c2ccc(Cl)cc2)CC1c1ccco1 (configuration not stated) | – | 0.169% | –
CCn1nc(C)c(Br)c1Nc1ccc(Br)cc1 | 1.64 µM [rising, partial curve] | 0.291% | –
COc1cc(C(=O)NCC2CCCCC2)ccc1OCc1c(C)noc1C | – | -11.4% | 0.517 µM [rising, full curve]
CC(C)(C)NC(=S)Nc1cccc(C(F)(F)F)c1 | 29.1 µM [falling, single point] | -107% | 29.1 µM [falling, single point]

SMILES | AC50 [1] | cell number change | AC50 [2]
COc1ccc(C(NC(=O)C(C)C)c2c(O)ccc3ccccc23)cc1OC (configuration not stated) | – | 6.83% | 1.16 µM [rising, single point]
CC(C)c1nc(SCC(=O)NCC2CCCO2)c2c(=O)n(C)c(=O)n(C)c2n1 (configuration not stated) | – | 20.9% | 29.1 µM [rising, single point]
COc1ccccc1Oc1ccc2c(c1)C(=O)N(c1ccc(Br)c3cccnc13)C2=O | – | -8.66% | 5.17 µM [falling, single point]
CS(=O)(=O)c1ccc(Cl)c(NC(=O)C2CCN(S(=O)(=O)c3cccs3)CC2)c1 | – | -3.68% | 18.4 µM [falling, single point]
Cc1ccc(CNC(=S)NC2CCC(C(C)(C)C)CC2)cc1 (configuration not stated) | – | 23.1% | –
CC(C)(C)OC(=O)CNC(=O)c1[nH]cnc1C(=O)Nc1ccc(CNC(=O)OC(C)(C)C)cc1 | – | -6.9% | 32.6 µM [falling, single point]
O=C(Nc1ccc(N2CCOCC2)cc1)c1cccc2ccccc12 | – | – | 29.1 µM [rising, partial curve, poor fit]
CC(NC(=O)c1cc(S(=O)(=O)N2CCOCC2)cn1C)c1ccccc1 (configuration not stated) | – | 19.9% | 16.4 µM [rising, partial curve]
O=C(Nc1ccc(N2CCOCC2)c([N+](=O)[O-])c1)c1ccco1 | – | -20.6% | 0.146 µM [falling, full curve, poor fit]
O=C(NCCc1ccccc1)c1ccc(CS(=O)(=O)Cc2ccccc2F)o1 | – | -0.133% | 0.326 µM [rising, full curve]
COC(=O)c1cccc(N(CC(=O)NCC2CCCO2)C(=O)CCC(=O)Nc2cc(C)on2)c1 (configuration not stated) | – | 12.5% | 0.92 µM [falling, full curve, poor fit]
COc1ccc(OC)c(C(=O)COC(=O)CNC(=O)c2ccccc2)c1 | – | -18.8% | 29.1 µM [falling, single point]
CCN(C(=O)c1ccco1)c1nc(-c2ccc(OC)cc2)cs1 | – | -6.56% | 3.26 µM [falling, single point]
O=C(NC1CCCCC1)C(c1ccncc1)N(C(=O)c1ccco1)c1ccc(F)cc1 (configuration not stated) | – | -8.97% | –
Cc1c(C#N)c(NC(=O)C(C)C)n(Cc2ccccc2)c1C | – | -24.2% | 1.16 µM [rising, single point]
COc1cccc(NC(=O)CCC2CCN(C(=O)c3cccc(NC(C)=O)c3)CC2)c1 | – | – | 6.51 µM [rising, single point]
Cc1ccc(NS(=O)(=O)c2ccc(OCC(N)=O)cc2)cc1 | – | 2.03% | 35.5 µM [rising, single point]
COc1cccc(CC(=O)Nc2cc(S(=O)(=O)N3CCCCC3)ccc2C)c1 | – | 3.79% | –
CCOC(=O)C(=O)Nc1nc(-c2ccccc2)c(CC)s1 | – | -8.25% | 0.0411 µM [falling, full curve]
Cc1ccc(S(C)(=O)=O)cc1S(=O)(=O)Nc1ccccc1 | – | 2.58% | 0.731 µM [rising, full curve, poor fit]

Given in CSV form: part of the list above.
SMILES,AC50 [1],cell number change,AC50 [2]
O=C(NC1CCCCC1)C(c1ccncc1)N(C(=O)c1ccco1)c1ccc(F)cc1 (configuration not stated),–,-8.97%,–
Cc1c(C#N)c(NC(=O)C(C)C)n(Cc2ccccc2)c1C,–,-24.2%,"1.16 µM [rising, single point]"

Remaining list, next part:

SMILES | AC50 [1] | cell number change | AC50 [2]
O=C(CSc1ncn[nH]1)NCCC(c1ccccc1)c1ccccc1 | 25.9 µM [rising, single point] | 53.2% | 29.1 µM [rising, partial curve]
COc1ccc(-c2cc(C(F)(F)F)nc(SCCC(=O)N3CCCC3)n2)cc1 | – | 24.4% | 20.6 µM [rising, partial curve, poor fit]
O=S(=O)(NCc1ccc(F)cc1)c1ccccc1Br | 23.1 µM [falling, partial curve, poor fit] | -37.3% | 1.46 µM [falling, full curve, poor fit]
CCN(CC)S(=O)(=O)c1ccc(N2C(=O)Nc3ccccc3N2O)cc1 | – | 17.3% | 6.51 µM [rising, partial curve, poor fit]
N#CC1=C(N)Oc2n[nH]c(-c3cccnc3)c2C1c1ccc([N+](=O)[O-])o1 (configuration not stated) | 1.3 µM [falling, partial curve, poor fit] | -56.9% | 6.51 µM [rising, partial curve]
Cc1ccc(/C(N)=N/OC(=O)CCC2CCCC2)cc1 | 0.092 µM [falling, full curve] | -30.3% | 0.164 µM [falling, full curve]
Clc1ccc(SCc2cn3cccnc3n2)cc1 | – | 12.5% | –
CCN(CC)C(=O)CSc1nsc(SCC(=O)N(CC)CC)c1C#N | – | -19.5% | 29.1 µM [falling, single point]
CCC(C)Sc1nc(O)cc(=O)[nH]1 (configuration not stated) | – | 0.455% | 2.31 µM [falling, partial curve]
O=C(NNC(=O)C12CC3CC(CC(C3)C1)C2)c1cccc([N+](=O)[O-])c1 | – | -31.6% | –
COc1nc(C#N)c(N2CCOCC2)o1 | 29.1 µM [falling, single point] | -183% | –
O=C(CCNC(=O)N1CCn2c1nc1ccccc12)NCc1ccccc1Cl | – | 16.9% | 13 µM [falling, partial curve]
O=C(NCc1ccco1)C(c1ccncc1)N(CCC1=CCCCC1)C(=O)Cn1nnc2ccccc21 (configuration not stated) | 2.31 µM [rising, partial curve] | -2.49% | 0.651 µM [falling, single point]
COc1ccc(-n2nc(C(=O)NCC(=O)NCCC3=CCCCC3)c3ccccc3c2=O)c(OC)c1 | 25.9 µM [rising, partial curve] | 97.7% | –
O=C(O)c1c[nH]c2ccc(F)cc2c1=O | 23.1 µM [falling, partial curve] | -51.8% | 23.1 µM [falling, partial curve, poor fit]
COc1cc(S(=O)(=O)N2CCN(Cc3cccs3)CC2)ccc1NC(C)=O | – | 5.62% | 16.4 µM [rising, single point]
COc1ccccc1NC(=O)c1ccc(Cl)c(S(=O)(=O)NCc2ccco2)c1 | – | 1.42% | 0.517 µM [rising, single point]
O=C(N/N=C1\CC2CC=CC12)c1ccccc1Cl (configuration not stated) | 0.00517 µM [rising, full curve, poor fit] | – | 0.00517 µM [rising, full curve, poor fit]

2 of these compounds in another layout.
SMILES	AC50 [1]	cell number change	AC50 [2]
Cc1cc(C)n(-c2ccc(C(=O)OCC(=O)Nc3ccc(S(=O)(=O)N4CCOCC4)cc3)cc2)n1	–	4.46%	0.146 µM [falling, full curve, poor fit]
COc1ccc(S(=O)(=O)N2CCCN(CC(=O)Nc3ccc(NC(C)=O)cc3)CC2)cc1	–	-0.417%	0.164 µM [rising, full curve, poor fit]

— PubChem BioAssay AID2685 (National Center for Advancing Translational Sciences (NCATS), 2010)
